Here are results for 39 sequences from the supplement of paper PMC10338343.

± gives the standard deviation. Only a part is listed here, and it is no random draw. Many entries were measured with a wide error. Bounds are passed on as bounds.
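Also: 1 nM active piRISC with 0.1 nM target library at 33 °C single turnover.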

For the test, the system named is MIWI (PIWIL1) piRISC loaded with piRNA #1 (30 nt). As to the kind of experiment: pre-steady-state target cleavage rate (min^-1); MIWI and MILI are mouse PIWI proteins and EfPiwi is from a freshwater sponge; tags in brackets are library labels; higher = faster piRNA-guided slicing of the target. The following applies: guide: piRNA #1 5'p-UGAGGUAGUAGGUUGUAUAGUAUCCAGAGG; auxiliary factor: 500 nM mouse GTSF1. In a few lines: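 At 33 °C in HEPES–potassium acetate buffer, a transcribed, DNA-blocked target RNA library […] was exposed for 0–8 or 0–960 min to 1 nM active affinity-purified piRISC carrying a single synthetic guide, with or without 500 nM GTSF1 partner protein. Uncleaved targets were sequenced and normalised to depth and to weakly complementary targets. With three trials pooled and k3 capped at 0.0001 min^-1, a burst-and-steady-state fit produced the pre-steady-state cleavage rate.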
As to GGUCUGGAUACUAUACAUACCUACUACCUCA, the “pre-steady-state target cleavage rate” value was 0.000515 ± 0.014. Consider GCUCUGGAUACUAUAUAACCUACUACCUCA, for which the “pre-steady-state target cleavage rate” value was 1.79 ± 0.1. Under GGAGACCUAUGAAUACAACCUACUUACCUCA stands 0.00206 ± 0.0032; under GGACUGGAUACUAUACAAACCUACUACCUCA, 0.0025 ± 0.0038; under GGAGACCUAUGAUAUCAACCUACACCUCA, 0.000352 ± 0.013. As for CCUCUGGAUACUAUACAACCCUACUACCUCA, the figure is 0.00658 ± 0.0036. Under GGACUGGAUAUUAUACAACCUACUACCUCA stands 1.62 ± 0.11; under CCCCUGGAUACUAUACAACCUACUACCUCA, 2.45 ± 0.15; under GGAGACCUAUGAUAUCUAACCUACUACCUCA, 0.000143 ± 0.021. Regarding GGAGACCUAUGAUAUCAACCUACUCCUCA, the “pre-steady-state target cleavage rate” value worked out at 0.000111 ± 0.018. Under GGAGACCUAUGUAUACUUGCUACUACCUCA stands 0.000125 ± 0.016; under GGAGACCUAUGAUAUGUUCCUACACCUCA, 0.000405 ± 0.011. As for GGUCUGGAUACUAUACAGACCUACUACCUCA, the figure is 0.00138 ± 0.007; as for CCACAGGAUACUAUACAACCUACUACCUCA, 1.87 ± 0.13. As for GCUCUGGCAUACUAUACAACCUACUACCUCA, the figure is 2.17 ± 0.12; as for GGAGACCUAUGUAUACAACCGUACUACCUCA, 0.00151 ± 0.0058. Regarding GGAGACCUAUGAUUACAACCUACUCACCUCA, the “pre-steady-state target cleavage rate” value stood at 0.00128 ± 0.0044.

GGAGACCUAUGAAUACAACGUACUAGCUCA: the “pre-steady-state target cleavage rate” value was found to be 0.000464 ± 0.0089.

For GGUCUGCUUACUAUACAACCUACUACCUCA, the “pre-steady-state target cleavage rate” value was 1.74 ± 0.12. In the case of GGAGACCUAUGAUUAACAACCUACUACCUCA, the “pre-steady-state target cleavage rate” value was found to be 0.00262 ± 0.0033.

Consider “CCUCUGGAUACUAUACUUGGAUGAUGGAGA [g15:g30:cont:t1A]”, for which the “pre-steady-state target cleavage rate” value is 0.000927 ± 0.0089.

Regarding GGUCUUGGAUACUAUACAACCUACUACCUCA, the “pre-steady-state target cleavage rate” value amounted to 1.87 ± 0.11.

On to GGAGACCUAUGAUAUGUUGGUACUACCCCA, for which the “pre-steady-state target cleavage rate” value was determined as 0.000285 ± 0.017. As for GGACUGGAUACUAUACACACCUACUACCUCA, the figure is 0.000323 ± 0.029; as for GGAGACCUAUGAAUACUAGCUACUACCUCA, below 0.0001; as for GCACUGGAUACUAUACAACCAACUACCUCA, 0.167 ± 0.017. As for GGAGACCUAUGAAUACAACCUACUACCUGCA, the figure is 0.000983 ± 0.0064.

For GGUGCUGGAUACUAUACAACCUACUACCUCA, the “pre-steady-state target cleavage rate” value was 1.85 ± 0.11. As for GCACUGGAUACUAUACAACCUACUACCUCA, the figure is 1.81 ± 0.093. As for CCUGUGCAUACUAUACAACCUACUACCUCA, the figure is 2.3 ± 0.15. As for GGAGACCUAUGAAUACAUCCUUCUACCUCA, the figure is 0.000918 ± 0.0057; as for GGACUGGAUACUAUACAACCGUACUACCUCA, 0.000541 ± 0.014. Take GGAGACCUAUGAUAUGUACCUACUAACUCA: the “pre-steady-state target cleavage rate” value is below 0.0001. On to GCUCUGGAUACUAUACAACCUACUACCUUCA, for which the “pre-steady-state target cleavage rate” value came to 1.9 ± 0.13. Turning to GGAGACCUAUGUAUACAACCUUCAACCUCA, the “pre-steady-state target cleavage rate” value is 0.000812 ± 0.0036.

In the case of GGACUGGAAACUUUACAACCUACUACCUCA, the “pre-steady-state target cleavage rate” value worked out at 0.689 ± 0.076. As for GGUCUGGAUACUAUACAACCUACACCUCA, the “pre-steady-state target cleavage rate” value was 0.000445 ± 0.0053. For the sequence GGAGACCUAACUAUAGAACCUACUACCUGA, the “pre-steady-state target cleavage rate” value turned out to be 0.188 ± 0.066. Regarding GGAGACCUAUCUAUACACCUACUACCUCA, the “pre-steady-state target cleavage rate” value was determined as 0.00142 ± 0.0045.
